Laboratory results published in patent publication US5955576A, “Inhibitors of thrombosis” (Corvas International, Inc., priority 1995, dated 1999).
Structures were worked out from names or drawings and are uncertain.

Sequences of proteins named here, by UniProt entry; tags and fusion partners are left off. Residues count along the entry.
UniProt P00747, 581-810 limits assumed: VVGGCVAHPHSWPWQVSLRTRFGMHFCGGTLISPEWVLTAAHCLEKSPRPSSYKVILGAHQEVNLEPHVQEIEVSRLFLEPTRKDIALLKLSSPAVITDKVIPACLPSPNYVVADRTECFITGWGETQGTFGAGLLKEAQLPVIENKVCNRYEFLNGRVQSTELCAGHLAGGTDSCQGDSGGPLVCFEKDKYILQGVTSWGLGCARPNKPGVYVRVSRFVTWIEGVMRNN
UniProt P00747, 97-580 partner limits assumed: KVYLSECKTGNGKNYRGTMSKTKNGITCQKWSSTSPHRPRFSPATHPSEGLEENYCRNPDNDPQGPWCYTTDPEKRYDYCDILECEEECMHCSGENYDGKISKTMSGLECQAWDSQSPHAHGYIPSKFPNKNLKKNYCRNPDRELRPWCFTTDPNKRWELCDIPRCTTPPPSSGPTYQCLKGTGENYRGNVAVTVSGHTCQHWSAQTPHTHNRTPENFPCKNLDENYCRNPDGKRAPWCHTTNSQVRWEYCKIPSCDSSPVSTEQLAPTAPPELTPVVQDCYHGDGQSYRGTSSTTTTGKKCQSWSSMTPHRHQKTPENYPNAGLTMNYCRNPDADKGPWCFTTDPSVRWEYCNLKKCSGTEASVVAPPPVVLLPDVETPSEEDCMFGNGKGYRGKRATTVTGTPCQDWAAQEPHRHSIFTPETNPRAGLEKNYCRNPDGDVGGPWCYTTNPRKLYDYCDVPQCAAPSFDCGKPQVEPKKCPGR
UniProt P00742, 235-488 limits assumed: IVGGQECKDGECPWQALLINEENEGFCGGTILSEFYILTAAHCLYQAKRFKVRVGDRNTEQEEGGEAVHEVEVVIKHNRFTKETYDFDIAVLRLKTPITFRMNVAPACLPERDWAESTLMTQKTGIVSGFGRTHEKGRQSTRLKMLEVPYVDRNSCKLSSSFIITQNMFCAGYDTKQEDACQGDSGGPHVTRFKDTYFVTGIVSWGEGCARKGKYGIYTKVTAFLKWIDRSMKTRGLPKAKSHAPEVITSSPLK
UniProt P00742, 41-179 partner limits assumed: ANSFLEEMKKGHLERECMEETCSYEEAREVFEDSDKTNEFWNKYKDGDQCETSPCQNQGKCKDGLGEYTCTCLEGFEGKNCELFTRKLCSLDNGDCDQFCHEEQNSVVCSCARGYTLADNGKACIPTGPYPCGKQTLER

Columns and labels:
plasmin = plasmin (Homo sapiens, UniProt P00747); test: Plasmin assay, chromogenic substrate S-2251; format: biochemical; settings: read-out: IC50 Plasmin; purified human enzyme, 30 minute incubation, HBSA pH 7.5
factor Xa = factor Xa (Homo sapiens, UniProt P00742); test: Factor Xa assay, chromogenic substrate S2765; settings: read-out: IC50 FXa; purified human enzyme, 30 minute incubation, HBSA pH 7.5

IC50 (plasmin): 48 nM | IC50 (factor Xa): 17 nM
Structure (SMILES): N=C(N)NCCC[C@@H](C=O)NC(=O)[C@@H]1CCCN1C(=O)[C@H](Cc1nnn[nH]1)NC(=O)CCC1CCCCC1
